Strings that start with PEPTIDE1 are HELM notation: dots part the residues, brackets hold end groups and non-standard residues.

We go through one substance from patent publication US20230024652A1 (NATIONAL MARINE BIODIVERSITY INSTITUTE OF KOREA, priority 2020, published 2023).

A short description of this data set: peptide made by a vendor. Conditions: whole synthesis.

“PEPTIDE1{G.W.L.I.R.G.A.I.H.A.G.K.A.I.H.G.L.I.H.R.R.R.H}$$$$V2.0”: the “final purity (method not given)” value is reported as 92.5%.
